From article PMC12431657, “Discovery and mechanistic insights of dibenzoylmethane as a broad spectrum inhibitor of coronavirus” (PLOS Pathogens, 2025)
Counter-ions that a name gives are not always drawn. Like-named read-outs stand apart in the source and are kept apart here. The whole screen tested about 3,300 compounds, of which about 60 (2%) showed an effect of 50% or more. This is one part of the list.

Tested on: HCoV-OC43
Set-up: species or system RD; HTS, protection from HCoV-OC43 induced cell death, luminescent cell viability (CellCounting-Lite 2.0), inhibition rate
Conditions: 24 h post infection, 1 h compound pre-incubation, 10 µM, inhibitor

Compound | OC43 Inhibition rate [%] | OC43 Inhibition rate (OC43 Inhibition rate, 24 h) [%]
C[C@H]1O[C@@H](O[C@H]2CC[C@@]3(C)[C@@H](CC[C@]4(C)[C@@H]3C=CC3=C5CC(C)(C)CC[C@]5(CO)[C@@H](O)C[C@]34C)[C@]2(C)CO)[C@H](O)[C@@H](O[C@@H]2O[C@H](CO)[C@@H](O)[C@H](O)[C@H]2O)[C@H]1O [Saikosaponin B1] | 1.4 | 
O=C(/C=C/c1ccccc1)OC[C@H]1O[C@@H](O[C@@H]2OC=C[C@H]3[C@H](O)[C@@H]4O[C@]4(CO)[C@@H]23)[C@H](O)[C@@H](O)[C@@H]1O [Picroside I] | 2.8 | 
OC[C@H]1O[C@@H](Oc2cc(O)cc(/C=C/c3ccc(O)cc3)c2)[C@H](O)[C@@H](O)[C@@H]1O [Polydatin] | 0.4 | 
C/C=C1/CN2CCc3c([nH]c4ccccc34)[C@@H]2C[C@@H]1/C(=C/OC)C(=O)OC [Geissoschizine methyl ether] | -0.1 | 
O=c1c(O)c(-c2ccc(O)cc2O)oc2cc(O)cc(O)c12 [Morin] | -1 | 
NC(=O)NCCCC(N)C(=O)O (stereo not shown) [2-Amino-5-ureidopentanoic acid] | -5.8 | 
O=C(O)CC(C(=O)O)C(O)C(=O)O (racemic) [DL-Isocitric acid (trisodium salt)] | 2.5 | 
C=C1CC[C@@H]2[C@](C)(CO)[C@H](O)CC[C@@]2(C)[C@H]1C/C=C1\C=COC1=O [Dehydroandrographolide] | 0.2 | 
O=c1c(-c2ccc(O)cc2)coc2cc(O[C@@H]3O[C@H](CO)[C@@H](O)[C@H](O)[C@H]3O)ccc12 [Daidzin] | 3.9 | 
N[C@@H](Cc1c[nH]c2ccc(O)cc12)C(=O)O [5-Hydroxytryptophan] |  | 6.4
NC(CCS)C(=O)O (racemic) [DL-Homocysteine] | -2.9 | 
COc1ccc2c(c1)[nH]c1c(C)nccc12 [Harmine (hydrochloride)] |  | 7.2
COc1cc(O)c2c(c1)O[C@H](c1cc(O)cc(O)c1)CC2=O [Blumeatin] | 2.8 | 
COC(=O)/C=C/C(C)=C\C=C\C(C)=C\C=C\C=C(C)\C=C\C=C(C)\C=C\C(=O)O [Bixin] | -1.7 | 
C=C1[C@H]2C[C@@]3([C@@H]1O)[C@@H](CC2=O)[C@]12[C@@H]4C[C@H]3[C@H]1N(CC)C[C@]4(C)CC[C@@H]2O [Songorine] | 1.3 | 
O=C1c2ccccc2C(=O)c2c1ccc(O)c2O [Alizarin] | 1.3 | 
COc1cc(O)ccc1/C=C/C(=O)c1ccc(O)cc1 [Echinatin] | 46.1 | 
CC(C)=CCC[C@](C)(O)[C@@H]1CC=C(C)CC1 [Levomenol] |  | -0.7
COC(=O)C1=CO[C@@H](O[C@@H]2O[C@H](CO)[C@@H](O)[C@H](O)[C@H]2O)[C@@H]2[C@@]3(C)O[C@H]3[C@@H](O)[C@]12O [Sesamoside] | -1.2 | 
Cn1ccc(=O)n(C)c1=O [1,3-Dimethyluracil] | -0.2 | 

Compound | OC43 Inhibition rate [%] | OC43 Inhibition rate (OC43 Inhibition rate, 24 h) [%]
COc1ccc([C@@H]2CC(=O)c3c(O)cc(O[C@@H]4O[C@H](CO)[C@@H](O)[C@H](O)[C@H]4O[C@@H]4O[C@@H](C)[C@H](O)[C@@H](O)[C@H]4O)cc3O2)cc1O [Neohesperidin] | -0.6 | 
CC(C)=CCC[C@]1(C)CC[C@]2(C)[C@H]3CC[C@@]4(C)[C@@H](CCC(=O)[C@@H]4C)[C@]3(C)CC[C@@]2(C)C1 [Shionone] | 2.2 | 
O=C(/C=C/c1ccc(O)c(O)c1)OCCc1ccccc1 [Caffeic acid phenethyl ester] | 3 | 
O=c1cc(-c2ccc(O[C@@H]3O[C@H](CO)[C@@H](O)[C@H](O)[C@H]3O)cc2)oc2cc(O)c([C@@H]3O[C@H](CO)[C@@H](O)[C@H](O)[C@H]3O[C@@H]3OC[C@H](O)[C@H](O)[C@H]3O)c(O)c12 [Vaccarin] | 0 | 
O=C(O)C(O)O [2,2-Dihydroxyacetic acid] | -0.7 | 
C[C@H](CCC(=O)O)[C@H]1CC[C@H]2[C@@H]3[C@H](O)C[C@@H]4C[C@H](O)CC[C@]4(C)[C@H]3CC[C@]12C [Chenodeoxycholic Acid] | 4.3 | 
O=C(O)C(O)c1ccccc1 (stereo not shown) [Mandelic acid] | 0 | 
O=C(O)/C=C\c1cc2ccoc2cc1O[C@@H]1O[C@H](CO)[C@@H](O)[C@H](O)[C@H]1O [Psoralenoside] | 0.4 | 
CN1CCC=C(C(=O)O)C1 [Arecaidine] |  | -6.2
c1cncc(C2=NCCC2)c1 [Myosmine] | -0.2 | 
COC(=O)c1ccccc1O[C@@H]1O[C@H](CO[C@@H]2OC[C@@H](O)[C@H](O)[C@H]2O)[C@@H](O)[C@H](O)[C@H]1O [Gaultherin] | 2.1 | 
Cn1c(=O)[nH]c2[nH]cnc2c1=O [1-Methylxanthine] | -0.9 | 
CC[C@H](C)C(=O)O[C@H]1CCC=C2C=C[C@H](C)[C@H](CC[C@@H]3C[C@@H](O)CC(=O)O3)[C@H]21 [Mevastatin] | 12.2 | 
CC(=O)O[C@H]1C[C@@]2(O)[C@@H](OC(=O)c3ccccc3)[C@@H]3[C@]4(OC(C)=O)CO[C@@H]4C[C@H](O)[C@@]3(C)[C@@H](O)[C@H](OC(C)=O)C(=C1C)C2(C)C [9-Dihydro-13-acetylbaccatin III] | -1.1 | 
Cc1nc(C)c(C)nc1C [Ligustrazine] | -0.2 | 
C=C1C[C@@]23CC[C@H]4[C@@](C)(CCC[C@@]4(C)C(=O)O)[C@@H]2CC[C@]1(O[C@@H]1O[C@H](CO)[C@@H](O)[C@H](O[C@@H]2O[C@H](CO)[C@@H](O)[C@H](O)[C@H]2O)[C@H]1O[C@@H]1O[C@H](CO)[C@@H](O)[C@H](O)[C@H]1O)C3 [Rebaudioside B] | 0 | 
CC1(C)[C@H](O)CC[C@@]2(C)[C@@H]3CC[C@](C)([C@@H](O)CO[C@@H]4O[C@H](CO)[C@@H](O)[C@H](O)[C@H]4O)C=C3CC[C@H]12 [Darutoside] | 1.8 | 
CN1C(=O)/C(=C2/C(=O)Nc3ccccc32)c2ccccc21 [Meisoindigo] | -0.3 | 
CO[C@@H]1O[C@H](CO)[C@H](O)[C@H](O)[C@H]1O [Methyl β-D-Galactopyranoside] | -6.2 | 
COC(=O)C1=CC[C@@]23CC[C@@H]([C@@](C)(/C=C/C=C(\C)C(=O)O)OC2=O)[C@@]3(OC(C)=O)CC1 [Pseudolaric Acid B] | 0.7 | 

Some of these compounds in order of heavy-atom count, descending.
Compound | OC43 Inhibition rate [%] | OC43 Inhibition rate (OC43 Inhibition rate, 24 h) [%]
C=C1C[C@@]23CC[C@H]4[C@@](C)(CCC[C@@]4(C)C(=O)O)[C@@H]2CC[C@]1(O[C@@H]1O[C@H](CO)[C@@H](O)[C@H](O[C@@H]2O[C@H](CO)[C@@H](O)[C@H](O)[C@H]2O)[C@H]1O[C@@H]1O[C@H](CO)[C@@H](O)[C@H](O)[C@H]1O)C3 [Rebaudioside B] | 0 | 
CC[C@H](C)C(=O)O[C@H]1CCC=C2C=C[C@H](C)[C@H](CC[C@@H]3C[C@@H](O)CC(=O)O3)[C@H]21 [Mevastatin] | 12.2 | 
CN1C(=O)/C(=C2/C(=O)Nc3ccccc32)c2ccccc21 [Meisoindigo] | -0.3 | 

The listing continues.

Compound | OC43 Inhibition rate [%] | OC43 Inhibition rate (OC43 Inhibition rate, 24 h) [%]
C=C1C(=O)O[C@@H]2/C=C(\C)[C@@H](OC(C)=O)C/C=C(\COC(C)=O)C[C@@H](OC(=O)/C(C)=C/CO)[C@@H]12 [Eupalinolide B] |  | 1.7
COc1cc(-c2cc(=O)c3c(O)cc(O)cc3o2)cc(OC)c1O [Tricin] | 1.1 | 
O=C(O)CNC(=O)Cc1ccccc1 [2-(2-Phenylacetamido)acetic acid] | -3.6 | 
O=C(O[C@H]1[C@H](Oc2c(-c3ccc(O)c(O)c3)oc3cc(O)cc(O)c3c2=O)O[C@H](CO)[C@H](O)[C@@H]1O)c1cc(O)c(O)c(O)c1 [2"-O-Galloylhyperin] | -1.9 | 
O=c1c(O[C@@H]2O[C@H](CO)[C@@H](O)[C@H](O)[C@H]2O)c(-c2ccc(O)cc2)oc2cc(O)cc(O)c12 [Astragalin] | -0.6 | 
COc1cc(-c2oc3cc(O)cc(O)c3c(=O)c2O[C@@H]2O[C@H](CO)[C@@H](O)[C@H](O)[C@H]2O[C@@H]2O[C@@H](C)[C@H](O)[C@@H](O)[C@H]2O)ccc1O [Isorhamnetin-3-O-neohespeidoside] | -0.1 | 
CCCCCC[C@@H](O)C/C=C\CCCCCCCC(=O)O [Ricinoleic acid] | -0.2 | 
C[C@@H]1O[C@@H](O[C@H]2[C@H](Oc3cc(O)c4c(=O)cc(-c5ccc(O)cc5)oc4c3)O[C@H](CO)[C@@H](O)[C@@H]2O)[C@H](O)[C@H](O)[C@H]1O [Rhoifolin] | 3 | 
CC(C)=CCc1c(O)ccc2ccc(=O)oc12 [Osthenol] | 6.4 | 
C[C@H](O)[C@@H](O)[C@@H](O)[C@H](O)CO [L-Fucitol] | 3.3 | 
CSSSC [Dimethyl trisulfide] | -0.3 | 
O=C(O)C(CO)c1ccccc1 (stereo not shown) [Tropic acid] | 0.5 | 
O=C(O)C(O)Cc1ccccc1 (racemic) [DL-3-Phenyllactic acid] | -0.2 | 
OC[C@H]1O[C@H](O)[C@H](O)[C@@H](O)[C@@H]1O [alpha-D-glucose] | -0.6 | 
CO[C@]1(CC[C@@H](C)CO[C@@H]2O[C@H](CO)[C@@H](O)[C@H](O)[C@H]2O)O[C@H]2C[C@H]3[C@@H]4CC=C5C[C@@H](O[C@@H]6O[C@H](CO)[C@@H](O[C@@H]7O[C@@H](C)[C@H](O)[C@@H](O)[C@H]7O)[C@H](O)[C@H]6O[C@@H]6O[C@@H](C)[C@H](O)[C@@H](O)[C@H]6O)CC[C@]5(C)[C@H]4CC[C@]3(C)[C@H]2[C@@H]1C [Methyl protodioscin] | -9 | 
CC(C)=CCNc1ncnc2nc[nH]c12 [6-(γ,γ-Dimethylallylamino)purine] | 1.4 | 
CC(=O)O[C@H]1CC/C(C)=C/CC/C(C)=C/C[C@]2(C(C)C)CC[C@@]1(C)O2 [Incensole Acetate] | 0 | 
CCCCCCCCCCCCCCCCCCCCCCCCCCCCC [Nonacosane] | -0.1 | 
